According to publication PMC3948889, “The Effects of LPM570065, a Novel Triple Reuptake Inhibitor, on Extracellular Serotonin, Dopamine and Norepinephrine Levels in Rats” (PLoS ONE, 2014):

Assays:
[1] = test system: extracellular 5-HT levels in the rat striatum; assay: microdialysis: extracellular 5-HT levels in the rat striatum; settings: baseline dialysate
[2] = test system: extracellular DA levels in the rat striatum; assay: microdialysis: extracellular DA levels in the rat striatum; settings: baseline dialysate
[3] = acute group, intravenous solution (0.04 mmol·kg^−1 i.v.)
[4] = acute group, oral suspension (0.06 mmol·kg^−1 p.o.)
[5] = chronic, oral suspension (0.06 mmol·kg^−1·day^−1 p.o.), 14th day

With CN(C)CC(c1ccc(O)cc1)C1(O)CCCCC1 (centres unmarked) [desvenlafaxine] the “Basal monoamine levels (mean±SD) 5-HT” value [1, 3] was 4.4 ± 1.9 nM, the “Basal monoamine levels (mean±SD) 5-HT” value ([1]; acute group, oral solution (0.06 mmol·kg^−1 p.o.), not corrected for probe recovery) was 4.1 ± 1.6 nM and the “Basal monoamine levels (mean±SD) 5-HT” value [1, 4] was 4.3 ± 1.4 nM. The “Basal monoamine levels (mean±SD) 5-HT” value [1, 5] was 4.1 ± 1.9 nM, the “Basal monoamine levels (mean±SD) DA” value [2, 3] was 7.6 ± 1.4 nM and the “Basal monoamine levels (mean±SD) DA” value ([2]; acute group, oral solution (0.06 mmol·kg^−1 p.o.)) was 6.6 ± 1.5 nM. For the same molecule, the “Basal monoamine levels (mean±SD) DA” value [2, 4] was 7.2 ± 1.5 nM and the “Basal monoamine levels (mean±SD) DA” value [2, 5] was 6.7 ± 1.4 nM.
